# Data as given in PubChem BioAssay AID1224827 (NIAID, 2016).
# Purpose: 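Confirm genes whose knock-down changes LPS-driven TNF promoter activity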 (follow-up of hits)
# Cells: RAW264.7 G9 mouse macrophage reporter clone
# Reagents: single siRNA against mouse genes, 100 nM siRNA
# Duration: siRNA for 2 days, then LPS about 16 h
# Challenge: bacterial lipopolysaccharide (LPS), 10 ng/ml, cells fixed after overnight (about 16 h) stimulation
# Measured: 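TNF promoter reporter red fluorescence in nuclei, background subtracted, normalised per plate and to non-targeting control siRNA, as z-scores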
# Direction: TNF reporter z-score, mean and TNF reporter z-score: higher = stronger Tnf promoter reporter signal; gene median z, three same-vendor siRNAs: higher = stronger Tnf reporter signal for the gene
# Call rule: 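An siRNA is called active when its mean z-score over replicates is at least +2 or at most -2; control wells get no call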
# Shown is one part, drawn at random, of about 3,800 reagents. Over the whole deposit, about 2,200 (57%) are marked active. 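Active means a strong reporter change in either direction; calls are per siRNA, not per gene; qiagen siRNAs gave weaker effects.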 Reagents against one gene are numbered here.
Target gene,siRNA no.,"TNF reporter z-score, mean","gene median z, three same-vendor siRNAs","TNF reporter z-score, repeat 1","TNF reporter z-score, repeat 2",activity call
Chd4 (chromodomain helicase DNA binding protein 4),1,0.295,-2.46,1.3,-0.709,inactive
Chd4 (chromodomain helicase DNA binding protein 4),2,-2.46,-2.46,-2.47,-2.45,active
Chd4 (chromodomain helicase DNA binding protein 4),3,-4.83,-2.46,-5.22,-4.43,active
Chd4 (chromodomain helicase DNA binding protein 4),4,-1.7,-2.25,-1.75,-1.66,inactive
Chd4 (chromodomain helicase DNA binding protein 4),5,-1.98,-2.25,-0.897,-3.06,inactive
Chd4 (chromodomain helicase DNA binding protein 4),6,-2.99,-2.25,-3.24,-2.74,active
"Supt6 (SPT6, histone chaperone and transcription elongation factor)",1,-1.95,-2.36,-2.89,-1.01,inactive
"Supt6 (SPT6, histone chaperone and transcription elongation factor)",2,-2.36,-2.36,-2.41,-2.3,active
"Supt6 (SPT6, histone chaperone and transcription elongation factor)",3,-2.47,-2.36,-2.03,-2.91,active
"Supt6 (SPT6, histone chaperone and transcription elongation factor)",4,-3.09,-3.73,-2.61,-3.56,active
"Supt6 (SPT6, histone chaperone and transcription elongation factor)",5,-3.46,-3.73,-3.95,-2.96,active
"Supt6 (SPT6, histone chaperone and transcription elongation factor)",6,-3.93,-3.73,-3.95,-3.91,active
Bend6 (BEN domain containing 6),1,4.22,-0.995,3.85,4.6,active
Bend6 (BEN domain containing 6),2,-0.995,-0.995,-1.73,-0.256,inactive
Bend6 (BEN domain containing 6),3,-4.79,-0.995,-4.95,-4.63,active
Bend6 (BEN domain containing 6),4,4.4,1.21,6.78,2.02,active
Bend6 (BEN domain containing 6),5,4.42,1.21,8.43,0.404,active
Bend6 (BEN domain containing 6),6,-1.03,1.21,-0.84,-1.21,inactive
Rufy3 (RUN and FYVE domain containing 3),1,3.05,-2.44,-1.03,7.13,active
Rufy3 (RUN and FYVE domain containing 3),2,-2.63,-2.44,-2.45,-2.81,active
Rufy3 (RUN and FYVE domain containing 3),3,-3.03,-2.44,-3.63,-2.43,active
Rufy3 (RUN and FYVE domain containing 3),4,3.41,0.762,5.81,1,active
Rufy3 (RUN and FYVE domain containing 3),5,3.08,0.762,5.63,0.522,active
Rufy3 (RUN and FYVE domain containing 3),6,-1.59,0.762,-0.527,-2.65,inactive
"Ephx2 (epoxide hydrolase 2, cytoplasmic)",1,1.56,-3.05,-0.926,4.05,inactive
"Ephx2 (epoxide hydrolase 2, cytoplasmic)",2,-3.05,-3.05,-3.57,-2.54,active
"Ephx2 (epoxide hydrolase 2, cytoplasmic)",3,-4.08,-3.05,-4.06,-4.11,active
"Ephx2 (epoxide hydrolase 2, cytoplasmic)",4,2.07,-3.05,4.44,-0.301,active
"Ephx2 (epoxide hydrolase 2, cytoplasmic)",5,-3.05,-3.05,-3.18,-2.92,active
"Ephx2 (epoxide hydrolase 2, cytoplasmic)",6,-3.96,-3.05,-4.05,-3.87,active

3 of these entries, set out differently.
Target gene	siRNA no.	TNF reporter z-score, mean	gene median z, three same-vendor siRNAs	TNF reporter z-score, repeat 1	TNF reporter z-score, repeat 2	activity call
Ephx2 (epoxide hydrolase 2, cytoplasmic)	1	1.56	-3.05	-0.926	4.05	inactive
Ephx2 (epoxide hydrolase 2, cytoplasmic)	2	-3.05	-3.05	-3.57	-2.54	active
Ephx2 (epoxide hydrolase 2, cytoplasmic)	3	-4.08	-3.05	-4.06	-4.11	active

The listing continues:
Target gene,siRNA no.,"TNF reporter z-score, mean","gene median z, three same-vendor siRNAs","TNF reporter z-score, repeat 1","TNF reporter z-score, repeat 2",activity call
Vmn1r231 (vomeronasal 1 receptor 231),1,-3.33,-3.82,-3.58,-3.09,active
Vmn1r231 (vomeronasal 1 receptor 231),2,-3.62,-3.82,-4.2,-3.03,active
Vmn1r231 (vomeronasal 1 receptor 231),3,-4.34,-3.82,-4.63,-4.06,active
Vmn1r231 (vomeronasal 1 receptor 231),4,2.01,-1.12,4.62,-0.608,active
Vmn1r231 (vomeronasal 1 receptor 231),5,-0.79,-1.12,0.143,-1.72,inactive
Vmn1r231 (vomeronasal 1 receptor 231),6,-2.04,-1.12,-1.62,-2.45,active
Prkd2 (protein kinase D2),1,1.72,0.734,0.339,3.1,inactive
Prkd2 (protein kinase D2),2,1.46,0.734,1.8,1.13,inactive
Prkd2 (protein kinase D2),3,-4.99,0.734,-5.07,-4.91,active
Prkd2 (protein kinase D2),4,0.318,-2.65,1.45,-0.809,inactive
Prkd2 (protein kinase D2),5,-2.65,-2.65,-2.95,-2.36,active
Prkd2 (protein kinase D2),6,-4.06,-2.65,-4.42,-3.7,active
"Eif3b (eukaryotic translation initiation factor 3, subunit B)",1,-2.08,-3.89,-2.15,-2,active
"Eif3b (eukaryotic translation initiation factor 3, subunit B)",2,-3.89,-3.89,-4.32,-3.45,active
"Eif3b (eukaryotic translation initiation factor 3, subunit B)",3,-5.15,-3.89,-4.45,-5.86,active
"Eif3b (eukaryotic translation initiation factor 3, subunit B)",4,-0.731,-2.41,1.66,-3.12,inactive
"Eif3b (eukaryotic translation initiation factor 3, subunit B)",5,-1.74,-2.41,-0.667,-2.82,inactive
"Eif3b (eukaryotic translation initiation factor 3, subunit B)",6,-2.9,-2.41,-1.99,-3.82,active
Rpl5 (ribosomal protein L5),1,-2.2,-4.49,-1.99,-2.42,active
Rpl5 (ribosomal protein L5),2,-4.49,-4.49,-4.36,-4.63,active
Rpl5 (ribosomal protein L5),3,-5.1,-4.49,-5.33,-4.86,active
Rpl5 (ribosomal protein L5),4,-2.03,-3.05,-1.36,-2.71,active
Rpl5 (ribosomal protein L5),5,-2.62,-3.05,-1.82,-3.42,active
Rpl5 (ribosomal protein L5),6,-3.46,-3.05,-3.4,-3.52,active
Thrsp (thyroid hormone responsive),1,2.83,0.136,2.58,3.08,active
Thrsp (thyroid hormone responsive),2,0.136,0.136,0.265,0.0072,inactive
Thrsp (thyroid hormone responsive),3,-3.58,0.136,-3.24,-3.92,active
Thrsp (thyroid hormone responsive),4,1.44,0.896,0.734,2.14,inactive
Thrsp (thyroid hormone responsive),5,1.63,0.896,2.2,1.06,inactive
Thrsp (thyroid hormone responsive),6,-2.18,0.896,-2.45,-1.92,active
